The data set relates to MC3T3 cells. In words: Microarray analysis (GSEA, IPA) of thapsigargin-induced mild ER stress. Format: cell-based, mouse. The conditions noted are these: 10 nM; score of 3 or above significant. The method, then:
Responses to Administration of Thapsigargin—Linkage to hypoxia through microarray analysis: In response to thapsigargin-induced mild ER stress (1 h exposure at 10 nM), microarray experiments were conducted. First, Gene Set Enrichment Analysis (GSEA; Broad Institute) was used to identify a group of genes that shared common biological functions (Hamamura, K., et al., “Microarray analysis of thapsigargin-induced stress to the endoplasmic reticulum of mouse osteoblasts,” J. Bone Miner. Metab. 26:231-240 (2008)). For each group of gene sets, GSEA calculates an enrichment score and evaluates statistical significance in the enrichment score. […] The highest normalized enrichment score was given to the gene set, HYPOXIA_UP. All genes present in the array were reordered based on a ranked list-metric value (a mean expression ratio between the thapsigargin-treated and untreated samples), and the best enrichment score of “−0.66” was assigned. Note that if the expression ratio is random among the genes in HYPOXIA_UP, the expected enrichment score is ±0.23. The enrichment score, ranked […] and P (enrichment score) supported the conclusions drawn from the software program output. […]

Regarding `C/C=C(/C)C(=O)O[C@H]1C(C)=C2[C@H]([C@@H]1OC(=O)CCCCCCC)[C@@](C)(OC(C)=O)C[C@H](OC(=O)CCC)[C@@]1(O)[C@H]2OC(=O)[C@@]1(C)O` [thapsigargin], the “IPA pathway score (Pathway 1 and Pathway 2)” value was 55.

Source of the values: US9056105B2, “Method for treatment of bone diseases and fractures” (INDIANA UNIVERSITY RESEARCH AND TECHNOLOGY CORPORATION, priority 2008, dated 2015).
